This passage reports binding results from PMC3823977.

These are yes or no findings as the source states them, for the method shown. In cells and extracts the contact can be indirect. Some results given as binding are weak or reduced against the parent protein; the word gives no strength. Where a sequence is shown, tags or fusion partners need not be part of it.

Experiment [1] deals with T1, C14orf178-GFP, GFP-tagged C14orf178 isoform1 (human) (UniProt Q8N769).
T1 sequence: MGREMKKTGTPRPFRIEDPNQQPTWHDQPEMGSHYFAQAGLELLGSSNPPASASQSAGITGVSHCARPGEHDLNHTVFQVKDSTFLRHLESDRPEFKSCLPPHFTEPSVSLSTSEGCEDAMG
The experiment in a line: co-IP; HEK293 cells co-transfected, RIPA lysate, anti-GFP magnetic beads overnight at 4°C, anti-FLAG blot.

Experiment [2] addresses Flag-wt-SETX, FLAG-tagged amino-terminal senataxin (1–650), wild type (human) (UniProt Q7Z333). The experiment is described as follows: cross-linking; HeLa cells transfected with FLAG-tagged amino-terminal senataxin, treated with disuccinimidyl suberate (DSS), anti-FLAG Western blot. In general terms: A western blot detects proteins with antibodies after separation by electrophoresis.

In experiment [3] the target is Flag-L389S-SETX, FLAG-tagged amino-terminal senataxin (1–650) with L389S (human) (UniProt Q7Z333). The experiment is described as above.

B1: Flag-wt-SETX, FLAG-tagged amino-terminal senataxin (1–650), wild type (domain or fragment, UniProt Q7Z333-1 1-650)
chain: MSTCCWCTPGGASTIDFLKRYASNTPSGEFQTADEDLCYCLECVAEYHKARDELPFLHEVLWELETLRLINHFEKSMKAEIGDDDELYIVDNNGEMPLFDITGQDFENKLRVPLLEILKYPYLLLHERVNELCVEALCRMEQANCSFQVFDKHPGIYLFLVHPNEMVRRWAILTARNLGKVDRDDYYDLQEVLLCLFKVIELGLLESPDIYTSSVLEKGKLILLPSHMYDTTNYKSYWLGICMLLTILEEQAMDSLLLGSDKQNDFMQSILHTMEREADDDSVDPFWPALHCFMVILDRLGSKVWGQLMDPIVAFQTIINNASYNREIRHIRNSSVRTKLEPESYLDDMVTCSQIVYNYNPEKTKKDSGWRTAICPDYCPNMYEEMETLASVLQSDIGQDMRVHNSTFLWFIPFVQSLMDLKDLGVAYIAQVVNHLYSEVKEVLNQTDAVCDKVTEFFLLILVSVIELHRNKKCLHLLWVSSQQWVEAVVKCAKLPTTAFTRSSEKSSGNCSKGTAMISSLSLHSMPSNSVQLAYVQLIRSLLKEGYQLGQQSLCKRFWDKLNLFLRGNLSLGWQLTSQETHELQSCLKQIIRNIKFKAPPCNTFVDLTSACKISPASYNKEESEQMGKTSRKDMHCLEASSPTFSKEPM
For B1, the binding result in experiment [1] was “no binding”; in experiment [2] it was “binds”.

B2: Flag-L389S-SETX, FLAG-tagged amino-terminal senataxin (1–650) with L389S (domain or fragment, UniProt Q7Z333-1 1-650)
chain: MSTCCWCTPGGASTIDFLKRYASNTPSGEFQTADEDLCYCLECVAEYHKARDELPFLHEVLWELETLRLINHFEKSMKAEIGDDDELYIVDNNGEMPLFDITGQDFENKLRVPLLEILKYPYLLLHERVNELCVEALCRMEQANCSFQVFDKHPGIYLFLVHPNEMVRRWAILTARNLGKVDRDDYYDLQEVLLCLFKVIELGLLESPDIYTSSVLEKGKLILLPSHMYDTTNYKSYWLGICMLLTILEEQAMDSLLLGSDKQNDFMQSILHTMEREADDDSVDPFWPALHCFMVILDRLGSKVWGQLMDPIVAFQTIINNASYNREIRHIRNSSVRTKLEPESYLDDMVTCSQIVYNYNPEKTKKDSGWRTAICPDYCPNMYEEMETSASVLQSDIGQDMRVHNSTFLWFIPFVQSLMDLKDLGVAYIAQVVNHLYSEVKEVLNQTDAVCDKVTEFFLLILVSVIELHRNKKCLHLLWVSSQQWVEAVVKCAKLPTTAFTRSSEKSSGNCSKGTAMISSLSLHSMPSNSVQLAYVQLIRSLLKEGYQLGQQSLCKRFWDKLNLFLRGNLSLGWQLTSQETHELQSCLKQIIRNIKFKAPPCNTFVDLTSACKISPASYNKEESEQMGKTSRKDMHCLEASSPTFSKEPM
B2: the binding result in experiment [1] and in experiment [3] was “binds” in each case.
